Results taken from PubChem BioAssay AID1671190 (National Center for Advancing Translational Sciences (NCATS), 2021).
Several values for one entry are separate records, joined by “and”; a condition that tells them apart may be missing. Identical values can stand only once. About 6,100 (1.1%) of roughly 580,000 compounds were called active. The shares of active, inactive and inconclusive entries below differ from those in the screen. The call rests on the fitted dose curve; in most records, active means well fitted inhibition curve with a large enough effect; inconclusive means small, poorly fitted or top-dose-only effect, or another doubt; inactive means no such curve, though single readings can be large or run the other way. Potencies of inconclusive entries are doubtful fits and often do not repeat.

Chains of the proteins cited; added tags and fusions are not shown. Lines headed by an entry give the natural chain unless they say otherwise; changes in a name come on top.
UniProt P18054: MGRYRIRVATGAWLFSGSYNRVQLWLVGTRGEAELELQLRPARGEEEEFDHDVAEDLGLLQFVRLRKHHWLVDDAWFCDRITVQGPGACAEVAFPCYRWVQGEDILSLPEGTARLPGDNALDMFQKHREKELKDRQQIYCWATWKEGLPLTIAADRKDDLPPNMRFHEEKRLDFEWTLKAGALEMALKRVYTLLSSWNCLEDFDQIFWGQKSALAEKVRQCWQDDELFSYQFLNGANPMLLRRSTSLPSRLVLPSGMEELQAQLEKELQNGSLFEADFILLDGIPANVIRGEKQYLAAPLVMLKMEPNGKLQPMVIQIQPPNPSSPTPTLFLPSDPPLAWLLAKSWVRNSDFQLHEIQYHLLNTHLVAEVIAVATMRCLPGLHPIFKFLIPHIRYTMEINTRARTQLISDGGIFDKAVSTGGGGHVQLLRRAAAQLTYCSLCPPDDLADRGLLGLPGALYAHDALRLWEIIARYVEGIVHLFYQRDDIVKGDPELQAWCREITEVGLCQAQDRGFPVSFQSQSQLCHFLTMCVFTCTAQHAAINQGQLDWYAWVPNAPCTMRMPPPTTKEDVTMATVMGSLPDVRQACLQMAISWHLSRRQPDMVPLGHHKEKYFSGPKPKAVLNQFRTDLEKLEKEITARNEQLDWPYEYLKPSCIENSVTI

Molecular target: Polyunsaturated fatty acid lipoxygenase ALOX12 (Homo sapiens) (UniProt P18054)
Test: Primary qHTS assay for inhibitors of human arachidonate 12S-lipoxygenase (ALOX12): Round 2
Settings: purified 12hLO, xylenol orange hydroperoxide absorbance; activity change, negative = inhibition: at 108 µM (top of the series) unless noted
Procedure, shortened: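 Hydroperoxide product was detected by ferrous iron/xylenol orange as the 573 to 405 nm absorbance ratio. Arachidonic acid at 40 uM (final) was turned over for 30 min at room temperature by 150 nM human 12hLO, pH 7.0 Hepes buffer, after 15 min compound preincubation.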
On the % scale 0 is the no-effect control and ±100 the full control effect; potency means the concentration at half of the fitted maximal effect.

Row | SMILES | Potency | activity change, negative = inhibition
1 | CSc1nc(O)c(C(c2ccc(OC(C)C)cc2)c2c(O)nc(SC)[nH]c2=O)c(=O)[nH]1 | inconclusive: 31.6 µM [inhibitor, partial curve, poor fit] | –
2 | Cc1ccccc1NC(=O)COC(=O)c1cccc2c(=O)c(C)c(-c3ccccc3)oc12 | inconclusive: 44.7 µM [inhibitor, partial curve, poor fit] | –
3 | COC(=O)c1c(NC(=O)c2ccn(C)n2)sc2c1CCC2 | inconclusive: 141 µM [inhibitor, single point] | –
4 | Cc1ccc(CN2C(=O)CC(Nc3ccc(N4CCOCC4)cc3)C2=O)cc1 (stereo unspecified) | inconclusive: 0.631 µM [inhibitor, full curve, poor fit] | –
5 | CS(=O)(=O)N1CCN(C(=O)Nc2ccccc2)C[C@H]1C(=O)N[C@@H](CC1CCCCC1)C(N)=O | inconclusive: 17.8 µM [inhibitor, full curve, poor fit] | –
6 | COc1ccc(CCNC(=O)C2CC(c3cc(C(F)(F)F)cc(C(F)(F)F)c3)=NO2)cc1 (stereo unspecified) | inconclusive: 20 µM [inhibitor, full curve, poor fit] | –
7 | O=C(NCC1(c2ccccc2)CCCC1)c1ccc(Br)cc1 | – | inactive: 7.05%
8 | COc1ccc(Cn2nnnc2C(c2ccc(F)cc2)N2CCN(C3CCCC3)CC2)cc1 (stereo unspecified) | – | inactive: -15.5%
9 | CCN1C[C@@H]2C(C(=O)Nc3cccc(Cl)c3)=NO[C@@H]2C1 | inconclusive: 100 µM [inhibitor, partial curve] | –
10 | CCCn1c(=O)[nH]c(=O)c2c1nc(-c1ccc(Cl)cc1)n2CCOC | inconclusive: 158 µM [inhibitor, partial curve, poor fit] | –
11 | COc1cc2c(cc1OC)CN(CC(=O)N1N=C(c3cccs3)CC1c1cccs1)CC2 (stereo unspecified) | inconclusive: 112 µM [inhibitor, single point] | –
12 | CCNc1c(NC(=O)Nc2ccc(Br)cc2F)c(=O)oc2ccccc12 | inconclusive: 44.7 µM [inhibitor, partial curve, poor fit] | –
13 | Cc1ccc2nc(-c3ccc(NC(=O)C4CC4)cc3)oc2c1 | inconclusive: 126 µM [inhibitor, single point] | –
14 | O=C(CCc1nc(CSc2n[nH]c(-c3ccccc3Cl)n2)no1)Nc1ccc2ccccc2c1 | – | inactive: -6.08%
15 | O=C1NCc2ccccc2CC12CCCN(Cc1ccc(F)cc1F)C2 (stereo unspecified) | inconclusive: 39.8 µM [inhibitor, partial curve] | –
16 | Cc1ccccc1C(=O)NC(NC(=O)c1ccccc1C)c1ccc(Br)cc1 | – | inactive: 13%
17 | COC(=O)c1cc(-c2ccc(F)cc2)nc2onc(C3CC3)c12 | inconclusive: 6.31 µM [inhibitor, full curve, poor fit] | –
18 | O=C(COc1ccc(Cl)cc1)NNC(=S)NCc1ccccc1 | inconclusive: 79.4 µM [inhibitor, partial curve, poor fit] | –
19 | COC(=O)CN1CCCC1Cc1ccc(OC)cc1 (stereo unspecified) | inconclusive: 25.1 µM [inhibitor, partial curve, poor fit] | –
20 | COC(=O)c1ccc(Cn2nc(-c3ccc(C)cc3)ccc2=O)cc1 | inconclusive: 112 µM [inhibitor, partial curve, poor fit] | –
21 | Cc1cc(=O)oc2cc(OCC(=O)NC(C)C34CC5CC(CC(C5)C3)C4)ccc12 (stereo unspecified) | inconclusive: 112 µM [inhibitor, single point] | –
22 | C=CC[C@H]1CC(C)=C[C@H](CC=C)N1 | inconclusive: 70.8 µM [inhibitor, partial curve, poor fit] and inconclusive: 31.6 µM [inhibitor, partial curve] and inconclusive: 31.6 µM [inhibitor, partial curve, poor fit] | –

Row | SMILES | Potency | activity change, negative = inhibition
23 | CCCCC(=O)N1CCCC(C(=O)OCC)C1 (stereo unspecified) | inconclusive: 112 µM [inhibitor, single point] | –
24 | NNc1cc(C(F)(F)F)ccc1Cl | inconclusive: 0.316 µM [inhibitor, full curve, poor fit] | –
25 | O=C(NCc1ccc2c(c1)OCO2)[C@@H]1C[C@H](c2ccc(F)cc2)N([S+](=O)([O-])C2CC2)C1 | inconclusive: 100 µM [inhibitor, partial curve, poor fit] | –
26 | O=C(COc1ccccc1)NCC(=O)NC1=NCCS1 | inconclusive: 141 µM [inhibitor, single point] | –
27 | O=C(Nc1ccccc1F)c1cc(-c2ccccn2)nc2ccccc12 | inconclusive: 28.2 µM [inhibitor, partial curve] | –
28 | Cc1cc(=O)oc2c(C)c3oc(/C(=N/O)c4ccccc4)c(C)c3cc12 | – | inactive: 1.96%
29 | COc1ccc(-c2ccc(NS(=O)(=O)c3ccccc3Cl)cc2)nn1 | inconclusive: 126 µM [inhibitor, partial curve, poor fit] | –
30 | CCOc1ccc(S(=O)(=O)Nc2nc3ccccc3nc2N2CCCC2)cc1 | inconclusive: 70.8 µM [inhibitor, partial curve, poor fit] | –
31 | O=C(Nc1ccc2oc(-c3cccnc3)nc2c1)c1cccc(Cl)c1 | inconclusive: 100 µM [inhibitor, partial curve, poor fit] | –
32 | S=C(NCc1ccccc1Cl)Nc1ccccc1 | inconclusive: 44.7 µM [inhibitor, partial curve, poor fit] | –
33 | Cc1ccc2c(c1)CCCN2C(=O)c1c(C)noc1C | – | inactive: 13.6%
34 | COc1ccc2c(c1)-c1nc(NC(=O)c3cccs3)sc1CC2 | inconclusive: 35.5 µM [inhibitor, partial curve, poor fit] | –
35 | Cc1ccsc1-c1cc(C(=O)O)c2c(ccc3ccccc32)n1 | inconclusive: 39.8 µM [inhibitor, partial curve] | –
36 | CCOc1ccc(C(c2c(C)[nH]n(-c3ccccc3)c2=O)c2c(C)[nH]n(-c3ccccc3)c2=O)cc1OC | active: 50.1 µM | –
37 | COCCNc1nc2c(c(=O)n(C)c(=O)n2C)n1Cc1cccc2ccccc12 | – | inactive: 4.29%
38 | C[C@H](CO)N1C[C@H](C)[C@H](CN(C)C(=O)Nc2ccc(F)cc2)Oc2ncc(Br)cc2C1=O | inconclusive: 112 µM [inhibitor, single point] | –
39 | CCn1c(SCc2cccnc2)nnc1-c1c[nH]c2ccccc12 | – | inactive: 4.25% [at 57.4 µM]
40 | CC(C)(C)c1ccc(C(=O)N2CCC(NC(=O)c3ccccc3)CC2)cc1 | – | inactive: 9.68%
41 | CCCCCn1nc(C(=O)NCCC(=O)OC)c2ccccc2c1=O | inconclusive: 44.7 µM [inhibitor, single point] | –
42 | CON(C)C(=O)CCN(Cc1ccccc1)C(=O)OC(C)(C)C | inconclusive: 31.6 µM [inhibitor, single point] | –
43 | COc1ccccc1Cc1c(-c2ccc(Cl)cc2)nc2ccc(C)cn12 | inconclusive: 141 µM [inhibitor, single point] | –
44 | CCN(CC)CCNC(=O)c1ccc2c(=O)n3nc(Nc4cccc(Cl)c4C)sc3nc2c1 | inconclusive: 112 µM [inhibitor, partial curve, poor fit] | –

Row | SMILES | Potency | activity change, negative = inhibition
45 | COc1ccc(-c2nsc(NC(=O)c3cccc(OC)c3)n2)cc1 | inconclusive: 89.1 µM [inhibitor, partial curve, poor fit] | –
46 | O=C(NCc1ccccc1)c1ccccc1NC(=O)C1CCC1 | – | inactive: 4.86%
47 | CCc1ccc(-c2cn3c(n2)sc2cc(C(=O)NCCCc4ccccc4)ccc23)cc1 | – | inactive: -15.1%
48 | CN1CCN(CC(=O)Nc2ccc(OC(F)(F)F)cc2)CC1 | inconclusive: 2.24 µM [inhibitor, full curve, poor fit] | –
49 | Cc1ccc(CN2CCN(/N=C/c3ccc(C(F)(F)F)cc3)CC2)cc1 | – | inactive: -22.7%
50 | O=C(Nc1ccc2oc(-c3ccccc3)nc2c1)c1ccncc1 | inconclusive: 112 µM [inhibitor, partial curve, poor fit] | –
51 | COc1ccc(N2C(=O)CSC23CCN(C(=O)Nc2ccc([N+](=O)[O-])cc2)CC3)cc1 | – | inactive: -0.424%
52 | Nc1nnc(-c2cccc(F)c2)s1 | inconclusive: 100 µM [inhibitor, partial curve, poor fit] | –
53 | Cc1cccc(Nc2ccc(NCc3ccccc3)nn2)c1 | – | inactive: 4.91%
54 | Cc1ccc(-n2nc3c(c2NC(=O)c2ccco2)CS(=O)(=O)C3)c(C)c1 | inconclusive: 3.55 µM [inhibitor, full curve, poor fit] | –
55 | COCc1ccccc1CNC(=O)c1ccsc1 | – | inactive: 10.4%
56 | Cc1nn(Cc2ccc(Cl)cc2)c2sc(C(=O)O)cc12 | inconclusive: 100 µM [inhibitor, single point] | –
57 | CCOC(=O)CN1NC2(CCCCCC2)NC1=S | inconclusive: 28.2 µM [inhibitor, partial curve, poor fit] | –
58 | COc1ccc(CCN(C)c2ccc(S(=O)(=O)N3CCCC3)cn2)cc1OC | – | inactive: 2.21%
59 | c1coc(CNCCSCc2cccs2)c1 | inconclusive: 5.62 µM [inhibitor, full curve, poor fit] | –
60 | CCOc1nccn2c(-c3ccc(CNC(=O)c4ccnn4C)cc3)cnc12 | – | inactive: -21.9% [at 176 µM]
61 | COc1ccc(-c2nc(CN3CCCC3c3ccc(OC)cc3)co2)cc1 (stereo unspecified) | inconclusive: 44.7 µM [inhibitor, partial curve, poor fit] | –
62 | CN(C)S(=O)(=O)N1C[C@H]2OC(=O)N(CCc3cccc(Cl)c3)[C@H]2C1 | – | inactive: 29.8%
63 | O=C(Nc1cccc(-c2nc3cc(Cl)ccc3o2)c1)c1ccc(F)cc1 | inactive | –
64 | CCc1ccccc1NC(=O)CNC(=O)Cn1c(=O)n(CC)c2ccccc21 | – | inactive: 17.4%
65 | CSc1ccc(-c2noc(-c3nnn4c3COC(c3ccc(Cl)cc3)C4)n2)cc1 (stereo unspecified) | – | inactive: 52.6%
66 | CCN1CCN(Cc2ccc(OC)c(OCc3ccccc3)c2)CC1 | inconclusive: 10 µM [inhibitor, full curve] | –
